# Article doi:10.1101/2025.03.01.640964
# These are yes or no findings as the source states them, for the method shown.
# Biological target: SteC_(210-429;K256H) (Salmonella Typhimurium strain 14028s) (UniProt D0ZIB5)
# Experiment: SEC-MALLS
substance,measurement,value
SteC_(210-429;K256H) (from UniProt D0ZIB5 210-429) (domain or fragment),binding,no binding (tested: 8 mg/ml)
